Assay results: patent US20110237612A1, “Thienylamino pyrimidines for use as Fungicides” (BayerCropScience AG, priority 2008, published 2011)
Some results were stated once for a whole list of compounds, not compound by compound.

System: Production of DON/Acetyl-DON by Fusarium Graminearum
Experiment: not given
Assay type: cell-based
Details: 50 µM

Structure (SMILES)	activity in the inhibition of DON/AcDON [%]
CCN(CC)C(=O)c1cc(Nc2ncc(Cl)c(NC3CC3)n2)cs1 [Example 9]	> 80

System: Venturia inaequalis
Experiment: Venturia test (apples)/protective
Assay type: in vivo
Details: 100 ppm, protective, 10 days after inoculation

Structure (SMILES)	efficacy [%]
CC1CC1Nc1nc(Nc2ccsc2)ncc1Cl (mixture of isomers) [Example 17]	≥ 70
O=C(c1cc(Nc2ncc(Cl)c(NC3CC3)n2)cs1)N1CCCCC1 [Example 7]	≥ 70
CC(C)N(C)C(=O)c1cc(Nc2ncc(Cl)c(NC3CC3)n2)cs1 [Example 8]	≥ 70
CCN(CC)C(=O)c1cc(Nc2ncc(Cl)c(NC3CC3)n2)cs1 [Example 9]	≥ 70

System: Pyricularia oryzae
Experiment: not given
Details: in vivo

Structure (SMILES)	efficacy [%]
CCN(CC)C(=O)c1cc(Nc2ncc(Cl)c(NC3CC3)n2)cs1 [Example 9]	≥ 80
O=C(c1cc(Nc2ncc(Cl)c(NC3CC3)n2)cs1)N1CCOCC1 [Example 19]	≥ 80
CC(C)Nc1nc(Nc2ccsc2)ncc1Cl [Example 27]	≥ 80

System: Leptosphaeria nodorum
Experiment: Leptosphaeria nodorum test (wheat)/protective
Assay type: in vivo
Details: 500 ppm, protective, 7-9 days after inoculation

Structure (SMILES)	efficacy [%]
CC1CC1Nc1nc(Nc2ccsc2)ncc1Cl (mixture of isomers) [Example 17]	≥ 70
O=C(c1cc(Nc2ncc(Cl)c(NC3CC3)n2)cs1)N1CCCCC1 [Example 7]	≥ 70
CC(C)N(C)C(=O)c1cc(Nc2ncc(Cl)c(NC3CC3)n2)cs1 [Example 8]	≥ 70
CCN(CC)C(=O)c1cc(Nc2ncc(Cl)c(NC3CC3)n2)cs1 [Example 9]	≥ 70
CC(=O)c1cc(Nc2ncc(Cl)c(NC3CC3)n2)cs1 [Example 13]	≥ 70
N#Cc1cc(Nc2ncc(Cl)c(NC3CC3)n2)cs1 [Example 14]	≥ 70
O=C(c1cc(Nc2ncc(Cl)c(NC3CC3)n2)cs1)N1CCOCC1 [Example 19]	≥ 70
C=CCNC(=O)c1cc(Nc2ncc(Cl)c(NC3CC3)n2)cs1 [Example 21]	≥ 70
C=CCN(C)C(=O)c1cc(Nc2ncc(Cl)c(NC3CC3)n2)cs1 [Example 22]	≥ 70
COCCNC(=O)c1cc(Nc2ncc(Cl)c(NC3CC3)n2)cs1 [Example 23]	≥ 70
COCC(C)NC(=O)c1cc(Nc2ncc(Cl)c(NC3CC3)n2)cs1 (centres unmarked) [Example 24]	≥ 70
CC(C)Nc1nc(Nc2ccsc2)ncc1Cl [Example 27]	≥ 70
CC(C)Nc1nc(Nc2ccsc2)ncc1Br [Example 28]	≥ 70
FC(F)CNc1nc(Nc2ccsc2)ncc1Br [Example 30]	≥ 70
FC(F)CNc1nc(Nc2ccsc2)ncc1Cl [Example 31]	≥ 70
Clc1cnc(Nc2ccsc2)nc1NCC1CC1 [Example 32]	≥ 70
Cc1ccc(Nc2ncc(C(F)(F)F)c(NC3CC3)n2)s1 [Example 36]	≥ 70
CN(CC1CC1)C(=O)c1cc(Nc2ncc(Cl)c(NC3CC3)n2)cs1 [Example 38]	≥ 70
S=C(c1cc(Nc2ncc(Cl)c(NC3CC3)n2)cs1)N1CCCC1 [Example 39]	≥ 70
CCN(CC)C(=S)c1cc(Nc2ncc(Cl)c(NC3CC3)n2)cs1 [Example 40]	≥ 70
Clc1cc(Nc2ncc(Cl)c(NC3CC3)n2)cs1 [Example 41]	≥ 70

System: Septoria tritici
Experiment: Septoria tritici test (wheat)/protective
Assay type: in vivo
Details: 500 ppm, protective, 21 days after inoculation

Structure (SMILES)	efficacy [%]
O=C(c1cc(Nc2ncc(Cl)c(NC3CC3)n2)cs1)N1CCCCC1 [Example 7]	≥ 70
CC(C)N(C)C(=O)c1cc(Nc2ncc(Cl)c(NC3CC3)n2)cs1 [Example 8]	≥ 70
CCN(CC)C(=O)c1cc(Nc2ncc(Cl)c(NC3CC3)n2)cs1 [Example 9]	≥ 70
CC(=O)c1cc(Nc2ncc(Cl)c(NC3CC3)n2)cs1 [Example 13]	≥ 70
CCN(CC)C(=S)c1cc(Nc2ncc(Cl)c(NC3CC3)n2)cs1 [Example 40]	≥ 70

System: Botrytis cinerea
Experiment: Botrytis test (bean)/protective
Assay type: in vivo
Details: 100 ppm, protective, two days after inoculation

Structure (SMILES)	efficacy [%]
CC1CC1Nc1nc(Nc2ccsc2)ncc1Cl (mixture of isomers) [Example 17]	≥ 70
O=C(c1cc(Nc2ncc(Cl)c(NC3CC3)n2)cs1)N1CCCCC1 [Example 7]	≥ 70
CC(C)N(C)C(=O)c1cc(Nc2ncc(Cl)c(NC3CC3)n2)cs1 [Example 8]	≥ 70

System: Sphaerotheca fuliginea
Experiment: Sphaerotheca test (cucumber)/protective
Assay type: in vivo
Details: 500 ppm, protective, seven days after inoculation

Structure (SMILES)	efficacy [%]
O=C(c1cc(Nc2ncc(Cl)c(NC3CC3)n2)cs1)N1CCCCC1 [Example 7]	≥ 70
CC(C)N(C)C(=O)c1cc(Nc2ncc(Cl)c(NC3CC3)n2)cs1 [Example 8]	≥ 70
CCN(CC)C(=O)c1cc(Nc2ncc(Cl)c(NC3CC3)n2)cs1 [Example 9]	≥ 70
Cc1ccc(Nc2ncc(C(F)(F)F)c(NC3CC3)n2)s1 [Example 36]	≥ 70
CCN(CC)C(=S)c1cc(Nc2ncc(Cl)c(NC3CC3)n2)cs1 [Example 40]	≥ 70

System: Alternaria solani
Experiment: Alternaria test (tomato)/protective
Assay type: in vivo
Details: 500 ppm, protective, seven days after inoculation

Structure (SMILES)	efficacy [%]
CC1CC1Nc1nc(Nc2ccsc2)ncc1Cl (mixture of isomers) [Example 17]	≥ 70
O=C(c1cc(Nc2ncc(Cl)c(NC3CC3)n2)cs1)N1CCCCC1 [Example 7]	≥ 70
CC(C)N(C)C(=O)c1cc(Nc2ncc(Cl)c(NC3CC3)n2)cs1 [Example 8]	≥ 70
CCN(CC)C(=O)c1cc(Nc2ncc(Cl)c(NC3CC3)n2)cs1 [Example 9]	≥ 70
CC(=O)c1cc(Nc2ncc(Cl)c(NC3CC3)n2)cs1 [Example 13]	≥ 70
N#Cc1cc(Nc2ncc(Cl)c(NC3CC3)n2)cs1 [Example 14]	≥ 70
O=C(c1cc(Nc2ncc(Cl)c(NC3CC3)n2)cs1)N1CCOCC1 [Example 19]	≥ 70
C=CCNC(=O)c1cc(Nc2ncc(Cl)c(NC3CC3)n2)cs1 [Example 21]	≥ 70
C=CCN(C)C(=O)c1cc(Nc2ncc(Cl)c(NC3CC3)n2)cs1 [Example 22]	≥ 70
COCC(C)NC(=O)c1cc(Nc2ncc(Cl)c(NC3CC3)n2)cs1 (centres unmarked) [Example 24]	≥ 70
CN(CC1CC1)C(=O)c1cc(Nc2ncc(Cl)c(NC3CC3)n2)cs1 [Example 38]	≥ 70
